This is an account of results in article doi:10.1101/2020.12.01.406488.

Amino acid sequences for entries named in this document (tags omitted).
UniProt O70546: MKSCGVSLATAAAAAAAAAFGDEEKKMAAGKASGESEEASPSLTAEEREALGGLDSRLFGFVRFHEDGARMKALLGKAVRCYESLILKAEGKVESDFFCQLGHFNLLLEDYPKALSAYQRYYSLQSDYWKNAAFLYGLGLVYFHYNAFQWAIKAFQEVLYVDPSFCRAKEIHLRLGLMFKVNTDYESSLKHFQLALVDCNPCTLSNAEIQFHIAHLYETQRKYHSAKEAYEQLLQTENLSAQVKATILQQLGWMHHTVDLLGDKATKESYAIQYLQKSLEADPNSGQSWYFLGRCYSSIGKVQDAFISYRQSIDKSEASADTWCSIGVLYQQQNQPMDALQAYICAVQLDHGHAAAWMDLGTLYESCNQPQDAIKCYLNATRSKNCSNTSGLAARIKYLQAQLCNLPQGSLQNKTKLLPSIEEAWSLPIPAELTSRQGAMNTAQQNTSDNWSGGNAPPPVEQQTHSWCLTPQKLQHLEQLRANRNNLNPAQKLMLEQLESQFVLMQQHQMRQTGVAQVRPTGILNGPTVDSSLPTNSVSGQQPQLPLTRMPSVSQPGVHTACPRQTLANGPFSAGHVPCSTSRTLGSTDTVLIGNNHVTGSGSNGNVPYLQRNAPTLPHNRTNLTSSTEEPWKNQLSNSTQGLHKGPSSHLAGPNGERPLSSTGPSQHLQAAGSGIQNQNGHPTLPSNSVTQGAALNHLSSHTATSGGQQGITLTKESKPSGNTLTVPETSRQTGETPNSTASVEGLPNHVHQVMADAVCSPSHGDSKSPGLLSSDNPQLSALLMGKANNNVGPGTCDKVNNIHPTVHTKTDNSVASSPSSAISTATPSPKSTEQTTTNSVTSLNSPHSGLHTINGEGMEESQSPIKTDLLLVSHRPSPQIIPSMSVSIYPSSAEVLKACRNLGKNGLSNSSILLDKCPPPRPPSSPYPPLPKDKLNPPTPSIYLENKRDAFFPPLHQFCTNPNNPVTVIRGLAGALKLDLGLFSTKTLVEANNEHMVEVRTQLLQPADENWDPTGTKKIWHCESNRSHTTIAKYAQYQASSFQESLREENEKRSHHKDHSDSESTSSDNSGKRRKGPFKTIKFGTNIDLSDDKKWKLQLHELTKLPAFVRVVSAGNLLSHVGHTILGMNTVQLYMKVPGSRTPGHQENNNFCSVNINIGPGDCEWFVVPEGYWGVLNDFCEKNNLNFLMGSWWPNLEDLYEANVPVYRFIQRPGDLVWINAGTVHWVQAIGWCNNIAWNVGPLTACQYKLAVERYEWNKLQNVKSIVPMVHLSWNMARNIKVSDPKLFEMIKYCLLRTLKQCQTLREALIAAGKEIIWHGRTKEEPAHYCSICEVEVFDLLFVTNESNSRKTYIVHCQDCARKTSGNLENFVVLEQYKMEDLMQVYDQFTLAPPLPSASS
UniProt Q8BUN5: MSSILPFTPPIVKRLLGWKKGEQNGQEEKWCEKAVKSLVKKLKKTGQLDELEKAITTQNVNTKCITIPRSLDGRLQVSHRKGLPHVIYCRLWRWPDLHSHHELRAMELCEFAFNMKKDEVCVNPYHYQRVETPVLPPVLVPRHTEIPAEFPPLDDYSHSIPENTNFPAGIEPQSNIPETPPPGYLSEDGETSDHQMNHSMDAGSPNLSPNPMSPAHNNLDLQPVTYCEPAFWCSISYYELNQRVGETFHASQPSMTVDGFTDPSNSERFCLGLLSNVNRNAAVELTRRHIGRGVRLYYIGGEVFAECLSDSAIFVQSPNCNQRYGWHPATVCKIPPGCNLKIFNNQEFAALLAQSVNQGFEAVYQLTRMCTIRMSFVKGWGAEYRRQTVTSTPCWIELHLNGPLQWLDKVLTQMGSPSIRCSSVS

For test [1], the target named is T1, Oct1 (mouse (endogenous in ESCs)) (UniProt P25425).
T1 sequence: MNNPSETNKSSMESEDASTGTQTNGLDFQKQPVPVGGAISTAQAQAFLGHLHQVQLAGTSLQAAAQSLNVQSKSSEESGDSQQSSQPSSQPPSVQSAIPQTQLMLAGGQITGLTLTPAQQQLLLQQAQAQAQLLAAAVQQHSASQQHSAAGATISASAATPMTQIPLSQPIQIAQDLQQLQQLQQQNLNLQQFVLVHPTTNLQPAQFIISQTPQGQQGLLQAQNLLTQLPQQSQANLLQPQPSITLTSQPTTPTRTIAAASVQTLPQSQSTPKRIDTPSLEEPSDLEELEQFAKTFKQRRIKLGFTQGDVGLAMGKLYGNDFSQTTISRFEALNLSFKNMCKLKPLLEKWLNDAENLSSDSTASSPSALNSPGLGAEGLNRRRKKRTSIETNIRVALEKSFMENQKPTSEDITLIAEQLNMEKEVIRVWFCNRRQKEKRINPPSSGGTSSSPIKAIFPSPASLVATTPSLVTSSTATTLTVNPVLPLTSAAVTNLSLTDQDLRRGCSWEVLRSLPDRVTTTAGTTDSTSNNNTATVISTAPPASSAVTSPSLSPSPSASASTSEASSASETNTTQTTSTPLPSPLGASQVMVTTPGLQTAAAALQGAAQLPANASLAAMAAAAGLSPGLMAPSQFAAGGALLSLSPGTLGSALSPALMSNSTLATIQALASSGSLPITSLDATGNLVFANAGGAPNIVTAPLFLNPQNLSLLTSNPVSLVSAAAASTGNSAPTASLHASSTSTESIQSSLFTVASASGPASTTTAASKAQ
Description: co-IP.

In test [2] the target is Utx (mouse (endogenous in ESCs)) (UniProt O70546). The test can be described thus: co-IP.

No constants are given. Whether binding was seen depends on the method and setting. In cells and extracts the contact can be indirect. Some entries that bind do so weakly or less than the wild type.

For the molecule Smad3 (from UniProt Q8BUN5 1-425), the binding entry in test [1] is listed as “binds”.

B1: Oct1 (protein, UniProt P25425 1-770)
chain: MNNPSETNKSSMESEDASTGTQTNGLDFQKQPVPVGGAISTAQAQAFLGHLHQVQLAGTSLQAAAQSLNVQSKSSEESGDSQQSSQPSSQPPSVQSAIPQTQLMLAGGQITGLTLTPAQQQLLLQQAQAQAQLLAAAVQQHSASQQHSAAGATISASAATPMTQIPLSQPIQIAQDLQQLQQLQQQNLNLQQFVLVHPTTNLQPAQFIISQTPQGQQGLLQAQNLLTQLPQQSQANLLQPQPSITLTSQPTTPTRTIAAASVQTLPQSQSTPKRIDTPSLEEPSDLEELEQFAKTFKQRRIKLGFTQGDVGLAMGKLYGNDFSQTTISRFEALNLSFKNMCKLKPLLEKWLNDAENLSSDSTASSPSALNSPGLGAEGLNRRRKKRTSIETNIRVALEKSFMENQKPTSEDITLIAEQLNMEKEVIRVWFCNRRQKEKRINPPSSGGTSSSPIKAIFPSPASLVATTPSLVTSSTATTLTVNPVLPLTSAAVTNLSLTDQDLRRGCSWEVLRSLPDRVTTTAGTTDSTSNNNTATVISTAPPASSAVTSPSLSPSPSASASTSEASSASETNTTQTTSTPLPSPLGASQVMVTTPGLQTAAAALQGAAQLPANASLAAMAAAAGLSPGLMAPSQFAAGGALLSLSPGTLGSALSPALMSNSTLATIQALASSGSLPITSLDATGNLVFANAGGAPNIVTAPLFLNPQNLSLLTSNPVSLVSAAAASTGNSAPTASLHASSTSTESIQSSLFTVASASGPASTTTAASKAQ
Consider B1, for which the binding entry in test [2] was “binds”.
